Measured values: PubChem BioAssay AID743255 (National Center for Advancing Translational Sciences (NCATS), 2014)
The whole screen tested about 390,000 compounds, of which about 910 (0.23%) were called active. This list was built around the results that the source calls inconclusive (neither active nor inactive); the mix of calls is not that of the screen. The call rests on the fitted dose curve; in most records, active means well fitted inhibition curve with a large enough effect; inconclusive means small, poorly fitted or top-dose-only effect; inactive means no such curve, though single readings can be large or run the other way. A potency beside an inconclusive call is a rough fit, not a confirmed value.

By UniProt entry, the sequences of proteins in these tests, tags left out. Where a name states a change or a piece, a line headed by the entry shows the natural chain unless it says otherwise.
UniProt O94782: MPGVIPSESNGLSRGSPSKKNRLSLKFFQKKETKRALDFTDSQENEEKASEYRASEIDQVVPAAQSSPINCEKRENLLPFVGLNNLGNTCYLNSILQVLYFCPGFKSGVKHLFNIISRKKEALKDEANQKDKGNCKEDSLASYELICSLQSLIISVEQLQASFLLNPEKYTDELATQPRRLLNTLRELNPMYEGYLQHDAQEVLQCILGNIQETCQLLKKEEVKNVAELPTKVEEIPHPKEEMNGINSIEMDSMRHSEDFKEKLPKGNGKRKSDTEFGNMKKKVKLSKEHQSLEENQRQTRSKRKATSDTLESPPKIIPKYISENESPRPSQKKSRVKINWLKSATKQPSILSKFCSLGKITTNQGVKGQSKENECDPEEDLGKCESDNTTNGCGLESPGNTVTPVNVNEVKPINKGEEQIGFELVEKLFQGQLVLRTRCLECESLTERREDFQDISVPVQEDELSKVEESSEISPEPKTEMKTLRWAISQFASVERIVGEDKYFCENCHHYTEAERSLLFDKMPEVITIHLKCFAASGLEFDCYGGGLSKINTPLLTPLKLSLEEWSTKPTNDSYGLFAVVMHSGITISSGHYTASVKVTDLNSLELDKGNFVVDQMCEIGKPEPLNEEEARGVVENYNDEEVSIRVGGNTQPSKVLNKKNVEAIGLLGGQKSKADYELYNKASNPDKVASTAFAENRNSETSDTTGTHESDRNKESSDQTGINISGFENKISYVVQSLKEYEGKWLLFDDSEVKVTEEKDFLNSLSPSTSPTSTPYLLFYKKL

The compounds below were run against Ubiquitin carboxyl-terminal hydrolase 1 (Homo sapiens) (UniProt O94782) (assay: Inhibitors of USP1/UAF1: Primary Screen). Settings: recombinant USP1/UAF1, Ub-Rhodamine cleavage fluorescence; series mostly up to 57.1 µM.
Procedure, shortened: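 USP1/UAF1 complex at 1 nM was preincubated with compound for 15 min at room temperature, then Ub-Rho substrate (150nM final) was added. Fluorescence (480/540 nm) was read kinetically, 6 reads every 60 seconds.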
Further: nearly all actives have a fitted effect of over 60% in size.
Potency means the concentration at half of the fitted maximal effect.

| Structure (SMILES) | Potency |
| --- | --- |
| CCCCn1c(=O)nc2n(-c3ccc(F)cc3)c3ccccc3cc-2c1=O | inconclusive: 4.47 µM [inhibitor, partial curve] |
| CCC1Oc2ccc(C)cc2N(CC(=O)N(Cc2ccc(C)o2)C2CCCC2)C1=O (stereo not given) | inactive |
| CC1CCCCN1C(=O)COc1ccccc1F (stereo not given) | inactive |
| O=C(Nc1ccc2nc3n(c(=O)c2c1)CCCC3)c1cccnc1Cl | inconclusive: 1.26 µM [inhibitor, full curve, poor fit] |
| O=C(NC1CC1)C1=C[C@H](c2coc3ccccc3c2=O)C[C@H](OCc2ccc(CO)cc2)O1 | inconclusive: 0.251 µM [inhibitor, full curve, poor fit] |
| O=C(O)/C=C/C(=O)NCCCc1ccccc1 | inactive |
| COc1cc(OC)c(NC(=O)N2CC=C(c3c[nH]c4ccccc34)CC2)cc1Cl | inconclusive: 44.7 µM [inhibitor, single point] |
| Cn1ncc(Cl)c1C(=O)N/N=C/c1ccccn1 | inactive |
| O=C(O)CC1(C(=O)O)CC2C=CC1C2 (stereo not given) | inconclusive: 7.08 µM [inhibitor, partial curve, poor fit] |
| CC(C)NC(=O)Nc1ccc2c(c1)C(=O)N([C@H](C)CO)C[C@H](C)[C@@H](CN(C)S(=O)(=O)c1cccs1)O2 | inconclusive: 7.94 µM [inhibitor, partial curve] |
| C=CCN1C=C2C(=O)C(C)(OC(=O)c3cnc4ccccc4n3)C(=O)C=C2C=C1/C=C/COC (stereo not given) | inconclusive: 35.5 µM [inhibitor, partial curve] |
| CCCOc1ccc(CCc2n[nH]c(=S)n2Cc2ccccc2)cc1 | inconclusive: 44.7 µM [inhibitor, partial curve, poor fit] |
| CC(C)(C)NC(=O)C(c1ccncc1)N(C(=O)Cn1nnc(-c2ccc(F)cc2)n1)c1ccc(F)cc1 (stereo not given) | inactive |
| O=S(=O)(Nc1ccccc1-c1ccccc1)c1ccccc1 | inconclusive: 44.7 µM [inhibitor, single point] |
| CC1=C(SCc2ccccc2)C(=O)c2ccccc2C1=O | active: 15.8 µM |
| COCCCNC(=O)Cn1nnc(-c2ccc(NC(=O)c3ccc(F)cc3)cc2)n1 | inconclusive: 28.2 µM [inhibitor, partial curve] |
| NC(=O)C1(N2CCCCC2)CCN(C(=S)Nc2ccc(S(N)(=O)=O)cc2)CC1 | inactive |
| CC(=O)NC1CC2CCCC(C1)N2C(=O)Nc1ccc(Cl)cc1 (stereo not given) | inconclusive: 0.316 µM [inhibitor, full curve] |
| COc1ccc(Nc2nc3ccccc3nc2-n2nc(C)cc2C)cc1 | inactive |
| BrC(=C\c1ccccc1)/C=N/Nc1ccc2nncn2n1 | inconclusive: 28.2 µM [inhibitor, partial curve] |
| O=C(NCc1ccc(C(F)(F)F)cc1)C1CC(c2cccc(F)c2)=NO1 (stereo not given) | inconclusive: 50.1 µM [inhibitor, partial curve, poor fit] |
| COc1cc(Nc2nc3ccccc3nc2NS(=O)(=O)c2ccc([N+](=O)[O-])cc2)cc(OC)c1OC | inactive |

| Structure (SMILES) | Potency |
| --- | --- |
| O=C(/C=C1\SC(=O)NC1=O)Nc1ccc(C(=O)O)cc1 | inconclusive: 35.5 µM [inhibitor, partial curve, poor fit] |
| Clc1ccc(-c2nnn3c2nc(NCc2ccc4c(c2)OCO4)c2ccccc23)cc1 | inconclusive: 7.08 µM [inhibitor, full curve, poor fit] |
| O=C(Nc1ccc(Cl)cn1)Nc1ccc(Cl)cn1 | inconclusive: 35.5 µM [inhibitor, single point] |
| CCc1ccc(C(=O)C(C)OC(=O)c2cccc(S(=O)(=O)N3CCOCC3)c2)cc1 (stereo not given) | inactive |
| Cc1ccc(C(=O)NCCOC23CC4CC(CC(C4)C2)C3)cc1 | inconclusive: 1 µM [inhibitor, full curve, poor fit] |
| COc1ccc(OCc2cc(C(=O)N3CCC(OC)CC3)no2)c2ccccc12 | inconclusive: 35.5 µM [inhibitor, single point] |
| O=C1C(=O)N(Cc2ccco2)C(c2cccc(Cl)c2)/C1=C(\O)c1ccc2c(c1)OCCO2 (stereo not given) | inactive |
| COC(=O)CCCC1=CC2=CC(=O)C(C)(OC(=O)c3cccs3)C(=O)C2=CN1Cc1ccc2c(c1)OCO2 (stereo not given) | inconclusive: 50.1 µM [inhibitor, partial curve, poor fit] |
| C=CC1=C(C(=O)O)N2C(=O)C(NC(=O)Cc3ccccc3)C2SC1 (stereo not given) | inconclusive: 0.501 µM [inhibitor, full curve, poor fit] |
| N#CCCn1nc(-c2ccc(Br)cc2)cc1Nc1ccccc1NC(=O)C(F)(F)F | inactive |
| CS(=O)(=O)N1CCC(C(=O)Nc2ccc(Cl)cc2Cl)CC1 | inconclusive: 355 µM [inhibitor, partial curve, poor fit] |
| Fc1ccc(-n2ncc3c(N4CCN(c5ccccc5F)CC4)ncnc32)cc1 | inconclusive: 5.01 µM [inhibitor, partial curve] |
| CCOC(=O)N/N=C/c1ccc(OC)c(O)c1 | inconclusive: 5.01 µM [inhibitor, partial curve] |
| CCN(CC)C(=O)COc1ccc(-c2nnc(Nc3ccc(OC)c(C(=O)NC)c3)c3ccccc23)cc1 | inconclusive: 224 µM [inhibitor, partial curve, poor fit] |
| O=C(O)c1cc(=O)c2c(OCC(O)COc3cccc4oc(C(=O)O)cc(=O)c34)cccc2o1 | inconclusive: 31.6 µM [inhibitor, single point] |
| COc1ccccc1-c1nc(SCC(=O)Nc2ccc(C)c(C)c2)n[nH]1 | inactive |
| CCN(c1ccccc1)S(=O)(=O)c1cc([N+](=O)[O-])ccc1N | inconclusive: 25.1 µM [inhibitor, partial curve, poor fit] |
| COC(=O)C=CC(=NNc1ccccc1)c1ccccc1 | inconclusive: 39.8 µM [inhibitor, partial curve, poor fit] |
| Cc1nnc(Sc2cc(NCCCO)c([N+](=O)[O-])c3nonc23)s1 | active: 14.1 µM |
| CCOC(=O)c1cn[nH]c1N | inactive |
| Cc1ccc(S(=O)(=O)N2CCC(=O)N(CCOCc3cccc(F)c3)CC2)cc1 | inconclusive: 10 µM [inhibitor, partial curve, poor fit] |
| C=C(C)C(O)CC/C(C)=C/Cc1c(O)ccc(C(=O)/C=C/c2ccc(O)cc2)c1O (stereo not given) | inconclusive: 14.1 µM [inhibitor, partial curve] |

Shown with each value named: entries from further up.
COc1ccccc1-c1nc(SCC(=O)Nc2ccc(C)c(C)c2)n[nH]1
  Potency: inactive
CCN(c1ccccc1)S(=O)(=O)c1cc([N+](=O)[O-])ccc1N
  Potency: inconclusive: 25.1 µM [inhibitor, partial curve, poor fit]
COC(=O)C=CC(=NNc1ccccc1)c1ccccc1
  Potency: inconclusive: 39.8 µM [inhibitor, partial curve, poor fit]

(further entries)

| Structure (SMILES) | Potency |
| --- | --- |
| CCc1nnc(NC(=O)CN2C(=O)/C(=C/c3cc(OC)c(OC)c(OC)c3)SC2=S)s1 | inconclusive: 35.5 µM [inhibitor, partial curve] |
| O=c1cc(-c2ccccc2Cl)oc2ccc([N+](=O)[O-])c(O)c12 | inactive |
| CCC1CCCCN1C(=O)Cn1c(=O)n(CCCCCC(=O)NCc2ccccc2Cl)c(=O)c2sccc21 (stereo not given) | inactive |
| COc1cccc(-c2nnc3sc(CN4CCCCC4)cn23)c1 | inactive |
| CC(C)C[C@H]1C(=O)N2CCC[C@H]2[C@]2(O)O[C@](NC(=O)C3C=C4c5cccc6[nH]c(Br)c(c56)C[C@H]4N(C)C3)(C(C)C)C(=O)N12 (stereo not given in full) | inactive |
| O=C(CCn1ccc2cc(S(=O)(=O)N3CCCC3)ccc21)NCc1ccccc1Cl | inconclusive: 3.98 µM [inhibitor, partial curve] |
| CC1CCC2(CC1)NC(=O)N(CC(=O)NCCc1c[nH]c3ccccc13)C2=O (stereo not given) | inconclusive: 89.1 µM [inhibitor, partial curve, poor fit] |
| Cc1cc(=O)n(CC(=O)NC(C)c2ccccc2)c2c1c(C)nn2C (stereo not given) | inconclusive: 8.91 µM [inhibitor, partial curve] |
| CCc1ccc(NC(=O)c2cc(C)nn2-c2ccccc2)cc1 | inconclusive: 316 µM [inhibitor, partial curve] |
| CC(C)(C)Nc1c(-c2cccs2)nc2ccccn12 | inconclusive: 39.8 µM [inhibitor, single point] |
| O=[N+]([O-])c1c(Nc2ccccc2O)cc(Cl)c2nonc12 | inconclusive: 22.4 µM [inhibitor, partial curve] |
| Cc1ccc(C(C)C)c2oc(=O)cc(-c3ccc(-c4ccc(C(F)(F)F)cc4)cc3)c12 | inconclusive: 39.8 µM [inhibitor, partial curve, poor fit] |
| O=C(NCCc1ccccc1)C1COc2ccccc2C1 (stereo not given) | inconclusive: 6.31 µM [inhibitor, single point] |
| CCOc1ccc(CC(=O)C2C(=O)CCCC2=O)cc1OCC | inactive |
| CC(C)c1ccc(S(=O)(=O)N2CCN(C(=O)CN3C(=O)c4ccccc4C3=O)CC2)cc1 | inconclusive: 44.7 µM [inhibitor, partial curve, poor fit] |
| Cc1cn(CC(=O)NCCN2CCOCC2)c(=O)[nH]c1=O | inconclusive: 56.2 µM [inhibitor, partial curve, poor fit] |
| CCOc1cc2[nH]c(=S)n(Cc3ccc(C(=O)NCCN(CC)CC)cc3)c(=O)c2cc1OCC | inactive |
| C=CCOc1ccc2c(c1)C(=NO)c1cc(OCC=C)ccc1-2 | inconclusive: 31.6 µM [inhibitor, partial curve] |
| CCN1c2ccccc2-c2nc(SCC(=O)Nc3cc(F)ccc3F)ncc2S1(=O)=O | inconclusive: 112 µM [inhibitor, partial curve, poor fit] |
| Nc1c(Cl)cc(-c2csc(NC(CO)c3nc4ccccc4n3CCOCCO)n2)cc1Cl (stereo not given) | inconclusive: 39.8 µM [inhibitor, partial curve] |
| Cc1ccc(CNc2ccc3c(c2)ncn3C)cc1 | inconclusive: 0.794 µM [inhibitor, full curve, poor fit] |
